{"sequences": {"note": "By UniProt entry, the sequences of proteins in these tests, tags left out. Residues count along the entry.", "UniProt Q12864, residues 23-787": "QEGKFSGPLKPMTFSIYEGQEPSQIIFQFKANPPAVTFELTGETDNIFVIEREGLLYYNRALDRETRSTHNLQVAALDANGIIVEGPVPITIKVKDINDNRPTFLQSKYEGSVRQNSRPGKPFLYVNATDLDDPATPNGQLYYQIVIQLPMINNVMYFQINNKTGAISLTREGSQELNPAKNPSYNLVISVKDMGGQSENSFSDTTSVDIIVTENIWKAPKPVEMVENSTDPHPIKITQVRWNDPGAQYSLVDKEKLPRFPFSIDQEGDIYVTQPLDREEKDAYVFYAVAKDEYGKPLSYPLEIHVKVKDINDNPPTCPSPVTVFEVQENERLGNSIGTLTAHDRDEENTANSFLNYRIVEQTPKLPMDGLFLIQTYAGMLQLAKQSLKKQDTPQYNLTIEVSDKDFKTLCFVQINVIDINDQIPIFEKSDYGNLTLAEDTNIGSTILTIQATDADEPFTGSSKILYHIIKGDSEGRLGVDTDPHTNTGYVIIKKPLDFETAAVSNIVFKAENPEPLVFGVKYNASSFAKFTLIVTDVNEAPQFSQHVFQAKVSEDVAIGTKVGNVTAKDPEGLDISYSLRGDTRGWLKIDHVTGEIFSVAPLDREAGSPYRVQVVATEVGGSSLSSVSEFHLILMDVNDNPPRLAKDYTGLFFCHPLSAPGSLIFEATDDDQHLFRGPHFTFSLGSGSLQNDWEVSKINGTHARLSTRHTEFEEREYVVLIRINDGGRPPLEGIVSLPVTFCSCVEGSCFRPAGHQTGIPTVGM"}, "source": "patent US20210115152A1", "about": "(ARBELE, published 2021)", "binders": {"B1": {"name": "h5G1fL, CDH17xCD3 bispecific antibody of the IgG-scFv / fL (full length) design, IgG1 (bispecific antibody, not shown: a dimerising Fc or GST; large carriers)", "heavy (part 1 of 2)": "QVQLVQSGAEVKKPGASVKVSCKVSAYAFSSSWMNWVRQAPGKGLEWMGRIYPRDGDTNYNGKFKGRVTMTADTSTDTAYMELSSLRSEDTAVYYCAREGDGYYWYFDVWGQGTTVTVSS", "heavy (part 2 of 2)": "EVQLVESGGGLVQPGGSLRLSCAASGYSFTGYTMNWVRQAPGKGLEWVALINPYKGVSTYNQKFKDRFTISVDKSKNTAYLQMNSLRAEDTAVYYCARSGYYGDSDWYFDVWGQGTLVTVSSGGGGSGGGGSGGGGSDIQMTQSPSSLSASVGDRVTITCRASQDIRNYLNWYQQKPGKAPKLLIYYTSRLESGVPSRFSGSGSGTDYTLTISSLQPEDFATYYCQQGNTLPWTFGQGTKVEIK", "light": "EIVLTQSPATLSLSPGERATLSCRASQSIRNYLHWYQQKPGEAPRLLIYYASQSISGIPARFSGSGSGTDFTLTISSLETEDFAMYYCQHSNSWPLTFGQGTKLEIK"}, "B2": {"name": "h10G4fL (h10G4U1fL; ARB202), CDH17xCD3 bispecific antibody of the IgG-scFv / fL design, IgG4 (bispecific antibody)", "heavy": "EVQLVESGGGLVQPGGSLRLSCAASGFTFSSYAMSWVRQTPGKGLEWVAVIDSNGGSTYYPDTVKDRFTISRDNSKNTLYLQMNSLRAEDTAVYYCSSYTNLGAYWGQGTLVTVSSASTKGPSVFPLAPSSKSTSGGTAALGCLVKDYFPEPVTVSWNSGALTSGVHTFPAVLQSSGLYSLSSVVTVPSSSLGTQTYICNVNHKPSNTKVDKRVEPKSCDKTHTCPPCPAPELLGGPSVFLFPPKPKDTLMISRTPEVTCVVVDVSQEDPEVQFNWYVDGVEVHNAKTKPREEQFNSTYRVVSVLTVLHQDWLNGKEYKCKVSNKGLPSSIEKTISKAKGQPREPQVYTLPPSQEEMTKNQVSLTCLVKGFYPSDIAVEWESNGQPENNYKTTPPVLDSDGSFFLYSRLTVDKSRWQEGNVFSCSVMHEALHNHYTQKSLSLSLGKPAGGGGSEVQLVESGGGLVQPGGSLRLSCAASGYSFTGYTMNWVRQAPGKGLEWVALINPYKGVSTYNQKFKDRFTISVDKSKNTAYLQMNSLRAEDTAVYYCARSGYYGDSDWYFDVWGQGTLVTVSSGGGGSGGGGSGGGGSDIQMTQSPSSLSASVGDRVTITCRASQDIRNYLNWYQQKPGKAPKLLIYYTSRLESGVPSRFSGSGSGTDYTLTISSLQPEDFATYYCQQGNTLPWTFGQGTKVEIK", "light": "DIQMTQSPSSLSASVGDRVTITCRASQDISGYLNWLQQKPGGAIKRLIYTTSTLDSGVPKRFSGSGSGTDFTLTISSLQSEDFATYYCLQYASSPFTFGGGTKVEIKRTVAAPSVFIFPPSDEQLKSGTASVVCLLNNFYPREAKVQWKVDNALQSGNSQESVTEQDSKDSTYSLSSTLTLSKADYEKHKVYACEVTHQGLSSPVTKSFNRGEC"}}, "key": {"[1]": {"molecular_target": "recombinant CDH17 (cadherin-17), coated on microtiter wells (UniProt Q12864)", "assay": "ELISA, recombinant CDH17 coated"}, "[2]": {"molecular_target": "recombinant CDH17 (cadherin-17), coated on microtiter wells (UniProt Q12864)", "assay": "ELISA, CHO conditioned medium on recombinant CDH17, anti-human Fc-HRP"}}, "note": "Results are given in words; binding and its absence hold for the method and conditions named. Some results given as binding are weak or reduced against the parent protein; the word gives no strength.", "data": [{"binder": "B1", "values": [{"measurement": "binding", "setting": "[1]", "value": "binds"}, {"measurement": "binding", "setting": "[2]", "value": "binds"}]}, {"binder": "B2", "values": [{"measurement": "binding", "setting": "[1]", "value": "binds"}, {"measurement": "binding", "setting": "[2]", "value": "binds"}]}]}
